Test results as given in article PMC4176176, “The CRISPR-associated Cas4 protein Pcal_0546 from Pyrobaculum calidifontis contains a [2Fe-2S] cluster: crystal structure and nuclease activity” (Nucleic Acids Research, 2014).
No constants are given. Whether binding was seen depends on the method and setting.

Biological target: Cas4 protein Pcal_0546 from Pyrobaculum calidifontis (Pyrobaculum calidifontis) (UniProt A3MTK6)
Assay: SEC; size-exclusion chromatography of the purified protein on a Superdex S200 10/300 GL column; both purified

B1: Cas4 protein Pcal_0546 from Pyrobaculum calidifontis (enzyme, UniProt A3MTK6 1-213)
chain: MELLSPKPLCSVVNCEDLEKLDHVSALNELRREQEIFKLLPGIYAHRYDFRRVSPSIINDFEYCPRLLWVQHKLGLKLLSEKSVVSIIRGRILHERYERLLSQYENVVAEYKVEIGDLVGVVDLVIKRGGEYIPVEIKTGFSKEAHKTQLQIYISMLKARFGYLVYRNHVEVVHRNDAALDVLKKIREILSAREAPPAKCNSCIFKPICKNLL
Question: With B1 as the binder, how does the binding read?
Answer: no binding
